Assay results taken from publication PMC12375503.
No constants are given. Whether binding was seen depends on the method and setting. In cells and extracts the contact can be indirect. Some entries that bind do so weakly or less than the wild type.

The chains behind the UniProt entries cited, without tags or fusion partners. Residues count along the entry.
UniProt P06729, residues 25-351: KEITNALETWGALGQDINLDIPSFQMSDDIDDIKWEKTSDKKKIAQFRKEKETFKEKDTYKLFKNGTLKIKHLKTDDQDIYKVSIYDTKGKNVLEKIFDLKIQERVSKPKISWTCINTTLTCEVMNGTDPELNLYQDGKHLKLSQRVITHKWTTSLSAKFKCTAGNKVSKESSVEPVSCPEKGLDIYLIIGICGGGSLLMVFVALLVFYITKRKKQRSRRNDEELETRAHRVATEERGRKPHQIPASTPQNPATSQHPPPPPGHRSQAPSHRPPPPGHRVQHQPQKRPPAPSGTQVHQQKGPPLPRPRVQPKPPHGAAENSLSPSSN
UniProt P19256, residues 29-250: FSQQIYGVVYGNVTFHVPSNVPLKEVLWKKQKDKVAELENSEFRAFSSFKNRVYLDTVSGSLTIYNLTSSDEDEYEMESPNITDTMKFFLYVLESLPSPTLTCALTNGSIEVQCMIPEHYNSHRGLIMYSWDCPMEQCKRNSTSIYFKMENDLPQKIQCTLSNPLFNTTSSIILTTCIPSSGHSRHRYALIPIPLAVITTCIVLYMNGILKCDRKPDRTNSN

Experiments:
[1] = biological target: CD2 (human (endogenous in CD8+ T cells from human blood)) (UniProt P06729); assay: co-IP; lysate (strong RIPA buffer with protease inhibitors) of CTLs cocultured with MDA-MB-231 cells (1:5, 24 h); anti-CD2 antibody 1:100, 4°C, 12 h; Protein A/G magnetic beads; western blot for CD58; IgG negative control; groups CTL, sh-NC CTL and sh-CD2 CTL (CD2 knock-down)
[2] = biological target: CD2 (human (endogenous in CD8+ T cells from human blood)) (UniProt P06729); assay: co-IP; lysate (RIPA buffer) of homogenised mouse subcutaneous MDA-MB-231 tumor tissue after injection of sh-NC or sh-CD2 CTLs; anti-CD2 antibody 1:100, 4°C, 12 h; Protein A/G magnetic beads; western blot for CD58; IgG negative control

binding [1]: binds | binding [2]: binds
Substance: CD58 (from UniProt P19256 29-250) (ligand)
